Drawing on doi:10.1101/795211 (bioRxiv, 2019), this text covers binding for 1 molecule.

The test deals with T1, His-tagged AtYefM co-expressed with AtYoeB from the pET-Duet vector (Agrobacterium tumefaciens strC58) (UniProt Q7CY23).
T1 sequence: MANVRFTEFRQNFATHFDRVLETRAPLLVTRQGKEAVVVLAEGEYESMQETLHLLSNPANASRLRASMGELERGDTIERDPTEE
Description: SEC.

These are yes or no findings as the source states them, for the method shown. Some results given as binding are weak or reduced against the parent protein; the word gives no strength. Where a sequence is shown, tags or fusion partners need not be part of it.

B1: AtYoeB co-expressed with His-AtYefM from the pET-Duet vector (natural protein)
chain: MKLVWTLSSWDDYEFWQRTDARMVEKINDLIRNAKRTPFAGLGKPEPLKGDMAGYWSRRITAEHRFVYRVSGSGSEQRLEVIQCRFHYQ
Regarding B1, the binding entry is listed as “binds”.
